Measured values from PubChem BioAssay (NCATS).
Inconclusive results, whose numbers are uncertain, are shown with a selection of clear calls. Where the call is inconclusive, the potency comes from a doubtful curve fit. Active and inactive are the calls of the source. The call rests on the fitted dose curve; in most records, active means well fitted cell-killing curve with a large enough effect; inconclusive means small, poorly fitted or top-dose-only effect, or effect the other way; inactive means no such curve, though single readings can be large or run the other way.

Assay: Quantitative High-Throughput drug screen in 47 multiple myeloma cell lines against the NCATS MIPE library collection: KMM1_JCRB cell viability assay (AID 1918960); further: nearly all actives have a fitted effect of over 30% in size
Conditions: KMM1 myeloma viability, CellTiter-Glo ATP luminescence, 48 h; viability (% of DMSO): at 45.8 µM (top of the series)
Source text: PI: Beverly A. Mock Ph.D.
Laboratory of Cancer Biology and Genetics,
Center for Cancer Research, National Cancer Institute,
National Institute of Health, Bethesda, Maryland
Drug resistance and disease progression are common in multiple myeloma (MM) patients, underscoring the need for new therapeutic combinations. […] We hypothesized that effective combinations would reduce MYC expression and enhance p16 activity. […] These preclinical data identify potentially useful drug combinations for evaluation in drug-resistant MM and reveal potential mechanisms of combined drug sensitivity.
Described herein is the primary MIPE qHTS used to cherrypick compounds. Validated compounds were then further tested for potential synergistic activiy.
[1] Peat TJ, Gaikwad SM, Dubois W, Gyabaah-Kessie N, Zhang S, Gorjifard S, Phyo Z, Andres M, Hughitt VK, Simpson RM, Miller MA, Girvin AT, Taylor A, Williams D, D'Antonio N, Zhang Y, Rajagopalan A, Flietner E, Wilson K, Zhang X, Shinn P, Klumpp-Thomas C, McKnight C, Itkin Z, Chen L, Kazandijian D, Zhang J, Michalowski AM, Simmons JK, Keats J, Thomas CJ, Mock BA. Drug combinations identified by high-throughput screening promote cell cycle transition and upregulate Smad pathways in myeloma. Cancer Lett. 2023 Aug 1;568:216284. doi: 10.1016/j.canlet.2023.216284. Epub 2023 Jun 24. PMID: 37356470; PMCID: PMC10408729.
SEQUENCE No. (e.g., 1, 2, 3, etc.); […] (e.g., Cells, Incubation, Reagent, etc.); VALUE and DESCRIPTION.
1; Cells; 5 uL; white, solid bottom 1536-well Greiner assay plate.
2; Compounds; 23 nL; Kalypsis pin tool (Wako USA) equipped with a 1536-well pin head to transfer to the assay plates.
3; Incubation; 48 hours; 37C incubation.
4; Reagent;5uL; CellTiter Glo (Promega).
5; Detector; 425V; Luminescence; Viewlux PerkinElmer.
NOTES (numbers refer to Sequence numbers above)
1. The cell-based screening methods employed in this study were like those previously published. Briefly, the corresponding myeloma cell lines were screened in 1,536-well plates with 500 cells, 5-uL per well for inhibition of cell viability (assessed by measuring ATP levels with CellTiterGlo).
2. NCATS MIPE 4.0 library of approved and investigational drugs were added using the Kalypsis pin tool. Wells treated with DMSO only for 100% viability and media only cells for 0% viability were used as controls.
3. The assay plates were covered and incubated for 48 hours in a 37C, 5% CO2 incubator with controlled humidity.
4. After 48 hours, CellTilter-GloTM luminescent substrate mix (Promega) reagent was added to the assay plate and plates we incubated for 5 min at room temperature.
5. Signal was measured as median relative luminescence units on a ViewLux (PerkinElmer) multiplate reader.
[1] Heske CM, Davis MI, Baumgart JT, Wilson K, Gormally MV, Chen L, Zhang X, Ceribelli M, Duveau DY, Guha R, Ferrer M, Arnaldez FI, Ji J, Tran HL, Zhang Y, Mendoza A, Helman LJ, Thomas CJ. Matrix Screen Identifies Synergistic Combination of PARP Inhibitors and Nicotinamide Phosphoribosyltransferase (NAMPT) Inhibitors in Ewing Sarcoma. Clin Cancer Res. 2017 Dec 1;23(23):7301-7311. doi: 10.1158/1078-0432.CCR-17-1121. Epub 2017 Sep 12. PMID: 28899971; PMCID: PMC6636827.
Potency means the concentration at half of the fitted maximal effect.

Compound	Potency	viability (% of DMSO)
CC(C)n1c(C=C[C@H](O)C[C@H](O)CC(=O)O)c(-c2ccc(F)cc2)c2ccccc21	inconclusive: 16.6 µM [cytotoxic, partial curve]	–
COC[C@@H](c1ccc(C(F)(F)F)cc1)N1CCN(C2(C)CCN(C(=O)c3c(C)ncnc3C)CC2)C[C@H]1C	inconclusive: 26.4 µM [cytotoxic, single point]	–
NC(=O)NN=Cc1ccc([N+](=O)[O-])o1	inconclusive: 33.2 µM [cytotoxic, single point]	–
COc1ccc2nc3cc(Cl)ccc3c(Nc3cc(CN4CCCC4)c(O)c(CN4CCCC4)c3)c2n1	inconclusive: 20.9 µM [cytotoxic, partial curve]	–
O=C(Nc1ccccc1Br)N[C@@H]1CCN(c2ccc(C(F)(F)F)cn2)C1	inactive	–
Oc1ccc(-c2ccc(-c3cc(Nc4cccc(CNC5CC5)c4)n[nH]3)cc2)c(O)c1	active: 0.743 µM	–
CO[C@H]1C[C@@H]2CC[C@@H](C)[C@@](O)(O2)C(=O)C(=O)N2CCCC[C@@H]2C(=O)O[C@H]([C@H](C)C[C@@H]2CC[C@H](OC(=O)C(C)(CO)CO)[C@H](OC)C2)CC(=O)[C@H](C)C=C(C)[C@@H](O)[C@@H](OC)C(=O)[C@H](C)C[C@H](C)C=CC=CC=C1C	inconclusive: 18.7 µM [cytotoxic, partial curve]	–
CCOC(=O)C=C[C@H](C[C@@H]1CCNC1=O)NC(=O)[C@@H](CC(=O)[C@@H](NC(=O)c1cc(C)on1)C(C)C)Cc1ccc(F)cc1	inactive	–
CN1CCC(=C2c3ccccc3C=Cc3ccccc32)CC1	inconclusive: 8.33 µM [cytotoxic, partial curve]	–
CC(C)(C)NCC(O)c1ccc(O)c(CO)c1 (stereo not given)	active: 0.059 µM	–
CCCN[C@H]1CCc2nc(N)sc2C1	inconclusive: 16.6 µM [cytotoxic, partial curve]	–
OCCN(CCO)c1nc(N2CCCCC2)c2nc(N(CCO)CCO)nc(N3CCCCC3)c2n1	inconclusive: 20.9 µM [cytotoxic, partial curve]	–
COCCCOc1cc(C[C@@H](C[C@H](N)[C@@H](O)C[C@H](C(=O)NCC(C)(C)C(N)=O)C(C)C)C(C)C)ccc1OC	inconclusive: 0.0009 µM	–
Cn1cnc2c(F)c(Nc3ccc(Br)cc3Cl)c(C(=O)NOCCO)cc21	active: 5.26 µM	–
COc1ccc2c(Oc3ccc(NC(=O)c4c(C)n(CC(C)(C)O)n(-c5ccccc5)c4=O)nc3)ccnc2c1	inconclusive: 20.9 µM [cytotoxic, partial curve]	–
CN(C)N=Nc1nc[nH]c1C(N)=O	active: 0.935 µM	–
CC1(C)O[C@H]2C[C@@H]3[C@H]4CCC5=CC(=O)C=C[C@]5(C)[C@@]4(F)[C@@H](O)C[C@]3(C)[C@]2(C(=O)CO)O1	inactive	–
COC(=O)C[C@](O)(CCCC(C)(C)O)C(=O)O[C@@H]1C(OC)=C[C@]23CCCN2CCc2cc4c(cc2[C@H]13)OCO4	inactive	–
CN(C)C(=O)C(CCN1CCC(O)(c2ccc(Cl)cc2)CC1)(c1ccccc1)c1ccccc1	inconclusive: 0.0332 µM [rising, full curve, poor fit]	–
CCCC1OC2C[C@@H]3[C@H]4CCC5=CC(=O)C=C[C@]5(C)[C@H]4C(O)C[C@]3(C)[C@]2(C(=O)CO)O1 (stereo not given in full)	inconclusive: 0.0042 µM [cytotoxic, full curve, poor fit]	–

Compound	Potency	viability (% of DMSO)
COc1ccc(-c2oc3c(CC=C(C)C)c(OC4O[C@H](CO)[C@@H](O)[C@H](O)[C@@H]4O)cc(O)c3c(=O)c2OC2O[C@@H](C)[C@H](O)[C@@H](O)[C@@H]2O)cc1 (stereo not given in full)	inconclusive: 13.2 µM [cytotoxic, partial curve]	–
COc1c(N2CCNC(C)C2)c(F)cc2c(=O)c(C(=O)O)cn(C3CC3)c12 (stereo not given)	inconclusive: 16.6 µM [cytotoxic, single point]	–
CCC=CC[C@H]1C(=O)CC[C@@H]1CC(=O)OC	inactive	–
CCN(CC)CCOc1ccc(C(=C(Cl)c2ccccc2)c2ccccc2)cc1	inconclusive: 18.7 µM [cytotoxic, partial curve, poor fit]	–
C[C@H]1c2cccc(O)c2C(O)=C2C(=O)[C@]3(O)C(O)=C(C(N)=O)C(=O)[C@@H](N(C)C)[C@@H]3[C@@H](O)[C@@H]21	–	inconclusive: 61.2% [cytotoxic]
CCCCC(C)(C)[C@H](O)C=C[C@H]1[C@H](O)CC(=O)[C@H]1CC=CCCCC(=O)O	inconclusive: 0.332 µM [rising, full curve, poor fit]	–
Cc1ccc(C(=O)c2cc(O)c(O)c([N+](=O)[O-])c2)cc1	inconclusive: 18.7 µM [cytotoxic, partial curve]	–
O=c1cc(-c2ccc(O)c(O)c2)oc2cc(O)cc(O)c12	inactive	–
CNC[C@H](O)c1cccc(O)c1	active: 5.26 µM	–
Cc1c(C)n(Cc2ccc(-c3ccccc3C(=O)O)cc2)c2ccc(C(=O)N[C@@H](C)c3ccc([N+](=O)[O-])cc3)cc12	active: 0.935 µM	–
CC[C@H]1OC(=O)[C@H](C)C(=O)[C@H](C)[C@@H](O[C@H]2O[C@H](C)C[C@H](N(C)C)[C@@H]2O)[C@](C)(OC)C[C@@H](C)C(=O)[C@H](C)[C@H]2N(CCCCn3cnc(-c4cccnc4)c3)C(=O)O[C@]12C	active: 3.72 µM	–
CNC(=O)[C@H](Cc1ccccc1)NC(=O)[C@H](CC(C)C)[C@H](CSc1cccs1)C(=O)NO	inconclusive: 3.32 µM [cytotoxic, full curve]	–
COC(c1ccccc1)(c1ccccc1)[C@H](Oc1nc(C)cc(C)n1)C(=O)O	inactive	–
CCOC(=O)Nc1ccc(NCc2ccc(F)cc2)nc1N	inconclusive: 13.2 µM [cytotoxic, partial curve]	–
COc1cc(N2CCC(N3CCN(C)CC3)CC2)ccc1Nc1ncnc(Nc2ccccc2S(=O)(=O)C(C)C)n1	inconclusive: 0.418 µM [cytotoxic, full curve, poor fit]	–
Cc1nc2c([nH]1)CCN(C(=O)c1ccc(NC(=O)c3ccccc3-c3ccccc3)cc1)c1ccccc1-2	inconclusive: 33.2 µM [cytotoxic, single point]	–
CC[C@@H]1C=C(C)C[C@H](C)C[C@H](OC)[C@H]2O[C@@](O)(C(=O)C(=O)N3CCCC[C@@H]3C(=O)O[C@H](C(C)=C[C@@H]3CC[C@H](Cl)[C@H](OC)C3)[C@H](C)[C@@H](O)CC1=O)[C@H](C)C[C@H]2OC	active: 8.33 µM	–
CO[C@H]1C[C@@H]2CC[C@@H](C)[C@@](O)(O2)C(=O)C(=O)N2CCCC[C@@H]2C(=O)O[C@H]([C@H](C)C[C@@H]2CC[C@H](OP(C)(C)=O)[C@H](OC)C2)CC(=O)[C@H](C)C=C(C)[C@@H](O)[C@@H](OC)C(=O)[C@H](C)C[C@H](C)C=CC=CC=C1C	inconclusive: 29.6 µM [cytotoxic, single point]	–
CC(=O)OCC(=O)[C@@]12N=C(C)O[C@H]1C[C@H]1[C@@H]3CCC4=CC(=O)C=C[C@]4(C)[C@@H]3[C@@H](O)C[C@@]12C	inconclusive: 13.2 µM [cytotoxic, partial curve, poor fit]	–
CCN(CC)CCCC(C)Nc1nc(C)cc(Nc2ccc3nc(C)cc(N)c3c2)n1 (stereo not given)	inconclusive: 9.35 µM [cytotoxic, single point]	–

Record cards, from the list above. Values in the order: Potency | viability (% of DMSO)
COc1c(N2CCNC(C)C2)c(F)cc2c(=O)c(C(=O)O)cn(C3CC3)c12 (stereo not given) in the list: inconclusive: 16.6 µM [cytotoxic, single point] | –
CC[C@H]1OC(=O)[C@H](C)C(=O)[C@H](C)[C@@H](O[C@H]2O[C@H](C)C[C@H](N(C)C)[C@@H]2O)[C@](C)(OC)C[C@@H](C)C(=O)[C@H](C)[C@H]2N(CCCCn3cnc(-c4cccnc4)c3)C(=O)O[C@]12C in the list: active: 3.72 µM | –
CO[C@H]1C[C@@H]2CC[C@@H](C)[C@@](O)(O2)C(=O)C(=O)N2CCCC[C@@H]2C(=O)O[C@H]([C@H](C)C[C@@H]2CC[C@H](OP(C)(C)=O)[C@H](OC)C2)CC(=O)[C@H](C)C=C(C)[C@@H](O)[C@@H](OC)C(=O)[C@H](C)C[C@H](C)C=CC=CC=C1C in the list: inconclusive: 29.6 µM [cytotoxic, single point] | –
